Data reported in paper PMC12494973.
These are yes or no findings as the source states them, for the method shown. In cells and extracts the contact can be indirect. Some results given as binding are weak or reduced against the parent protein; the word gives no strength. For some assays here: Tags and fused reporters may be left off the sequences shown.

B1: Carnitine palmitoyltransferase 1B (CPT1B) (enzyme, UniProt Q924X2 1-772)
chain: MAEAHQAVAFQFTVTPDGVDFRLSREALRHIYLSGINSWKKRLIRIKNGILRGVYPGSPTSWLVVVMATVGSNYCKVDISMGLVDCIQRCLPERYGHFGTPQTEALLSMVIFSTGVWATGIFFFRQTLKLLLSYHGWMFEMHSKTSHATKIWAICVRLLSSRRPMLYSFQTSLPKLPVPSVPATIHRYLDSVRPLLDDEAYYRMETLAKEFQDKTAPRLQKYLVLKSWWATNYVSDWWEEYVYLRSRSPLMVNSNYYAMDFVLIKNTNVQAARLGNAVHAMIMYRRKLDREEIKPVMALGMVPMCSYQMERMFNTTRIPGKETDLLQHLSESRHVAVYHKGRFFKVWLYEGSRLLKPRDLEMQFQRILDDPSPPQPGEEKLAALTAGGRVEWAEARQTFFSSGKNKMSLDAIERAAFFVTLDEDSHCYNPDDETSLSLYGKALLHGNCYNRWFDKSFTLISCKNGLLGLNTEHSWADAPIIGHLWEFVLGTDTFHLGYTETGHCVGEPNTTLPPPQRLPWDIPEQCREAIENSYQVAKALADDVELYCFQFLPFGKGLIKKCRTSPDAFVQIALQLAHFRDKGKFCLTYEASMTRMFREGRTETVRSCTNESAAFVQAMMKGSHKKQDLQDLFRKASEKHQNMYRLAMTGAGIDRHLFCLYIVSKYLGVSSPFLAEVLSEPWSLSTSQIPQFQICMFDPKQYPNHLGAGGGFGPVADDGYGVSYMIAGENTMFFHISSKYSSSETNAQRFGNHIRQALLDIAELFKISKTDS
B2: CPT1B in HEK293T whole cell extract (enzyme, UniProt Q92523 1-772)
chain: MAEAHQAVAFQFTVTPDGVDFRLSREALKHVYLSGINSWKKRLIRIKNGILRGVYPGSPTSWLVVIMATVGSSFCNVDISLGLVSCIQRCLPQGCGPYQTPQTRALLSMAIFSTGVWVTGIFFFRQTLKLLLCYHGWMFEMHGKTSNLTRIWAMCIRLLSSRHPMLYSFQTSLPKLPVPRVSATIQRYLESVRPLLDDEEYYRMELLAKEFQDKTAPRLQKYLVLKSWWASNYVSDWWEEYIYLRGRSPLMVNSNYYVMDLVLIKNTDVQAARLGNIIHAMIMYRRKLDREEIKPVMALGIVPMCSYQMERMFNTTRIPGKDTDVLQHLSDSRHVAVYHKGRFFKLWLYEGARLLKPQDLEMQFQRILDDPSPPQPGEEKLAALTAGGRVEWAQARQAFFSSGKNKAALEAIERAAFFVALDEESYSYDPEDEASLSLYGKALLHGNCYNRWFDKSFTLISFKNGQLGLNAEHAWADAPIIGHLWEFVLGTDSFHLGYTETGHCLGKPNPALAPPTRLQWDIPKQCQAVIESSYQVAKALADDVELYCFQFLPFGKGLIKKCRTSPDAFVQIALQLAHFRDRGKFCLTYEASMTRMFREGRTETVRSCTSESTAFVQAMMEGSHTKADLRDLFQKAAKKHQNMYRLAMTGAGIDRHLFCLYLVSKYLGVSSPFLAEVLSEPWRLSTSQIPQSQIRMFDPEQHPNHLGAGGGFGPVADDGYGVSYMIAGENTIFFHISSKFSSSETNAQRFGNHIRKALLDIADLFQVPKAYS

Legend:
[1] = molecular target: T1, Mitochondrial carrier homolog 2 (MTCH2) (mouse (endogenous in iBAs)) (UniProt Q791V5); test: proximity ligation; differentiated iBAs fixed with paraformaldehyde 20 min at room temperature; kit from Sigma-Aldrich; rabbit anti-MTCH2 and mouse anti-CPT1A or anti-CPT1B; incubation without antibodies as negative control
T1 sequence: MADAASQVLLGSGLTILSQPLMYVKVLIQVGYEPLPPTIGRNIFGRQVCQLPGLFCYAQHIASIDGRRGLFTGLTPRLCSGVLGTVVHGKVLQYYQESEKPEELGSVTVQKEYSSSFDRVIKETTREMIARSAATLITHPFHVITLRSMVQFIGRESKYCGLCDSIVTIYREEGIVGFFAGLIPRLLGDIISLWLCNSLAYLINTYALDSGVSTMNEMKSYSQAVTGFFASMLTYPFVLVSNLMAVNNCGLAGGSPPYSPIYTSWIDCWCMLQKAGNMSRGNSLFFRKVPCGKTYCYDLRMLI

[2] = molecular target: T2, mouse FLAG-MTCH2 (mouse) (UniProt Q791V5); test: co-IP; HEK293T cells overexpressing mouse FLAG-MTCH2; whole cell lysate in RIPA buffer (50 mM Tris-HCl pH 7.4, 150 mM NaCl, 2 mM EDTA, 1.0% Triton X-100); anti-FLAG beads overnight at 4 °C; blots for FLAG, CPT1a, CPT1b
T2 sequence: T1 sequence

Binder	binding [1]	binding [2]
B1	binds	
B2		binds
